PubChem BioAssay AID2417 (National Center for Advancing Translational Sciences (NCATS), 2010)
The campaign covered roughly 140,000 compounds. About 4,300 (3.1%) were called active. Inconclusive results, whose numbers are uncertain, are shown with a selection of clear calls.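 The calls were made as follows: active = readout at or below -70, meaning at least 70% loss of cells showing the perinucleolar compartment, a nuclear body marking cancer cells; inconclusive = readout between -30 and a set limit; inactive = the rest.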

assay: High Content Assay for Compounds that inhibit the Assembly of the Perinucleolar Compartment; conditions: PC3M PTB-GFP, PNC prevalence imaging, 16 h; at 10 µM; active compounds read low;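 also: plate controls were DMSO wells for no effect and camptothecin positive control wells for full effect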
In short: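 Compounds are pinned in duplicate onto adhered PC3M cells stably expressing GFP-tagged PTB and incubated 16 h at 37 C. Cells are then fixed, nuclei stained with Hoechst, and PNC-positive cells counted.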

Q: For `C(=N\n1cnnc1)/c1ccc(OC2CSC2)cc1`, which activity change (PNC), negative = inhibition is on record?
A: inactive: 5.68%

Q: Which activity change (PNC), negative = inhibition does the source give for `C[C@]12CC[C@H]3C(=CCc4cc(O)ccc43)[C@@H]1CCC2=O` here?
A: inactive: 5.67%

Q: For `O=C(Nc1ccc2c(c1)OCO2)c1ccc(Cl)s1`, which activity change (PNC), negative = inhibition is on record?
A: inactive: -9.26%

Q: With `CCOC(=O)NCc1ccc2c(c1)cc(C)n2C` as the compound, how does the activity change (PNC), negative = inhibition read?
A: inactive: 42.4%

Q: For `Cc1ccc(Cn2nc(C)c(NC(=O)C3(C)CC3(Br)Br)c2C)cc1` (stereo unspecified), which activity change (PNC), negative = inhibition is on record?
A: inconclusive: -65.3%

Q: Which activity change (PNC), negative = inhibition does the source give for `O=c1c(Cl)c(Cl)cnn1Cc1ccccc1Cl` here?
A: inconclusive: -79.1%

Q: For `O=C(CCc1ccc(S(=O)(=O)N2CCOCC2)cc1)N1CCN(Cc2ccc3c(c2)OCO3)CC1`, which activity change (PNC), negative = inhibition is on record?
A: inactive: 14%

Q: Which activity change (PNC), negative = inhibition does the source give for `N#Cc1sc2nc(-c3cccs3)cc(-c3ccc(Cl)cc3)c2c1N` here?
A: inactive: -18.3%

Q: With `CC(C)Cc1cc(C(=O)Nc2sc3c(c2C#N)CCCC3)no1` as the compound, how does the activity change (PNC), negative = inhibition read?
A: inactive: 34.6%

Q: Which activity change (PNC), negative = inhibition does the source give for `CCN(CC)CCN1C(=O)C(=O)/C(=C(/O)c2ccc(Cl)cc2)C1c1ccncc1` (stereo unspecified) here?
A: inconclusive: -75%

Q: Which activity change (PNC), negative = inhibition does the source give for `COc1ccc(C2CC(c3cccs3)=NN2C(=O)CSC2=NN3CCCC(=O)N=C3S2)cc1` (stereo unspecified) here?
A: inactive: 32%

Q: For `O=C(NC(=S)Nc1ccc(N2CCOCC2)cc1)c1cccc(Cl)c1`, which activity change (PNC), negative = inhibition is on record?
A: inconclusive: -41.6%

Q: For `O=c1oc(-c2ccc(F)cc2)nc2ccsc12`, which activity change (PNC), negative = inhibition is on record?
A: active: -111%

Q: With `CN(C)S(=O)(=O)c1ccc(C(=O)NCCSc2ccccc2)cc1` as the compound, how does the activity change (PNC), negative = inhibition read?
A: inconclusive: -42.4%

Q: For `N#Cc1cnc(SCC(=O)c2ccccc2)nc1N`, which activity change (PNC), negative = inhibition is on record?
A: inactive: 1.77%

Q: With `Cc1cccc(Cn2c(CN3CCN(Cc4ccccc4)CC3)nc3c2c(=O)[nH]c(=O)n3C)c1` as the compound, how does the activity change (PNC), negative = inhibition read?
A: inactive: 37.3%

Q: For `COc1cccc(OCC(O)CN2CCN(c3ccccn3)CC2)c1` (stereo unspecified), which activity change (PNC), negative = inhibition is on record?
A: inactive: 46.6%

Q: With `CC(C)(C)NC(=O)c1ccc2nccnc2c1` as the compound, how does the activity change (PNC), negative = inhibition read?
A: inactive: 1.02%

Q: Which activity change (PNC), negative = inhibition does the source give for `COc1ccc(OC)c(NC(=S)NN2CCOCC2)c1` here?
A: inactive: -0.33%

Q: With `Cc1cccc(C)c1NC(=O)CNc1ncnc2sc(C)c(C)c12` as the compound, how does the activity change (PNC), negative = inhibition read?
A: inactive: -22.4%

Q: For `CCOC(=O)CNC(=O)CSc1nnc(Cn2c(=O)sc3ccccc32)n1C`, which activity change (PNC), negative = inhibition is on record?
A: inconclusive: -40.5%

Q: With `O=C(Cn1cnc2sc(-c3ccccc3)cc2c1=O)NCCc1ccccc1` as the compound, how does the activity change (PNC), negative = inhibition read?
A: inconclusive: -48.7%

Q: With `Cc1c(C)n(C)c2ccc(C(=O)NCc3cccs3)cc12` as the compound, how does the activity change (PNC), negative = inhibition read?
A: active: -119%

Q: For `CC(C)N(Cc1nc(-c2ccccc2)no1)C(=O)Cc1ccccc1`, which activity change (PNC), negative = inhibition is on record?
A: inconclusive: -41.3%

Q: With `CSCC[C@H](NC(=O)c1nn(C)c(=O)c2ccccc12)c1nc2ccccc2[nH]1` as the compound, how does the activity change (PNC), negative = inhibition read?
A: inactive: -10.8%

Q: Which activity change (PNC), negative = inhibition does the source give for `Cc1ccc2[nH]c3c(c2c1)CCC3=O` here?
A: inactive: -9.8%

Q: Which activity change (PNC), negative = inhibition does the source give for `O=C(NCc1ccco1)Nc1ccc(Br)cc1` here?
A: inactive: 9.54%

Q: With `CCN1CC2=C(OC(N)=C(C#N)C2c2ccccc2)/C(=C\c2ccccc2)C1` (stereo unspecified) as the compound, how does the activity change (PNC), negative = inhibition read?
A: inconclusive: -41.3%

Q: With `COc1ccccc1N1CCN(C(=O)/C=C/c2ccccc2)CC1` as the compound, how does the activity change (PNC), negative = inhibition read?
A: active: -100%

Q: For `CCOc1ccc(OC(=O)c2cccnc2)cc1`, which activity change (PNC), negative = inhibition is on record?
A: inconclusive: -45.5%

Q: Which activity change (PNC), negative = inhibition does the source give for `CC(=O)Nc1ccc(Nc2c([N+](=O)[O-])cc(S(C)(=O)=O)cc2[N+](=O)[O-])cc1` here?
A: inconclusive: -37.9%

Q: For `COC(=O)C1=C(Nc2ccc(C)cc2)C=C(C)C(C(=O)OC)C1c1ccc(F)cc1` (stereo unspecified), which activity change (PNC), negative = inhibition is on record?
A: active: -100%

Q: With `O=C(O)CSc1c(-c2ccccc2)[nH]c2ccccc12` as the compound, how does the activity change (PNC), negative = inhibition read?
A: active: -84.7%

Q: For `O=S1(=O)C=C(SCc2cccc(Cl)c2)Nc2ccccc21`, which activity change (PNC), negative = inhibition is on record?
A: inactive: 26.1%

Q: With `O=C(OCC#CCSc1nnc(-c2ccccc2)o1)c1cccs1` as the compound, how does the activity change (PNC), negative = inhibition read?
A: inactive: 24.6%

Q: Which activity change (PNC), negative = inhibition does the source give for `CCOC(=O)c1cn(Cc2ccccc2)nn1` here?
A: inconclusive: -65%

Q: With `c1ccc(-c2ccc(CN3CCN(c4ncccn4)CC3)cc2)cc1` as the compound, how does the activity change (PNC), negative = inhibition read?
A: inconclusive: -31.5%

Q: With `CCOc1ccc(CONS(=O)(=O)c2ccc(NC(C)=O)cc2)cc1Cl` as the compound, how does the activity change (PNC), negative = inhibition read?
A: inconclusive: -44.7%

Q: Which activity change (PNC), negative = inhibition does the source give for `COc1cccc(C(=O)/C=C/c2ccc(N3CCCCC3)c([N+](=O)[O-])c2)c1` here?
A: inactive: 29.8%

Q: With `CC(C)(C)NC(=O)NC(=O)COC(=O)CCCc1c[nH]c2ccccc12` as the compound, how does the activity change (PNC), negative = inhibition read?
A: inconclusive: -40.9%

Q: For `COc1ccccc1CNC(=O)c1ccc(OCC2CCCO2)cc1` (stereo unspecified), which activity change (PNC), negative = inhibition is on record?
A: inactive: -14.4%

Q: Which activity change (PNC), negative = inhibition does the source give for `COc1ccc(S(=O)(=O)N2CCN(C(=O)c3cccs3)CC2)cc1OC` here?
A: inactive: -15.3%

Q: Which activity change (PNC), negative = inhibition does the source give for `CNC(=O)c1cc2cc(OC)ccc2oc1=N` here?
A: inactive: 18.2%

Q: For `COC(=O)c1cnn2c(C)c(Cc3cccc(F)c3)c(C)nc12`, which activity change (PNC), negative = inhibition is on record?
A: active: -87.9%

Q: For `O=C(OCc1nnc(-c2ccccc2)o1)c1cc(=O)c2ccccc2o1`, which activity change (PNC), negative = inhibition is on record?
A: inconclusive: -30.3%

Q: For `O=C(Nc1ccc(Cl)cc1C(F)(F)F)c1ccccc1`, which activity change (PNC), negative = inhibition is on record?
A: inactive: -22.5%
